Reference: US12577239B2, “Sulfilimines or sulfoximines containing fungicidal heterocyclic compounds” (PI INDUSTRIES LTD., priority 2019, dated 2026)
Some of these results come from one statement about several compounds together. At least one structure is not confirmed: it was looked up by name or label, or the drawing left a doubt.

Columns and labels:
Phytophthora infestans [1] = type: cell-based; details: 30 ppm; Rye Agar, radial growth after seven days at 18° C., 95% relative humidity
Phytophthora infestans [2] = type: in vivo, Phytophthora infestans on tomato plants; details: 50 ppm; preventive, tomato plants inoculated one day after treatment; visual disease severity rating

Compound | control compared to the untreated check (Phytophthora infestans [1]) [%] | control compared to the untreated check (Efficacy, % control) (Phytophthora infestans [2]) [%]
CCN=S(C)(=O)c1cccc(C(F)(F)F)c1C1CC(c2csc(C3CCN(C(=O)Cn4nc(C(F)F)cc4C(F)F)CC3)n2)=NO1 (stereo not drawn) [Compound 116] | ≥ 70 | ≥ 70
CN=S(C)(=O)c1cccc(C(F)F)c1C1CC(c2csc(C3CCN(C(=O)COc4ncccc4OC)CC3)n2)=NO1 (stereo not drawn) [Compound 154] | ≥ 70 | ≥ 70
CCS(=O)(CC)=Nc1cccc(Cl)c1C1CC(c2csc(C3CCN(C(=O)COc4ncccc4C(F)(F)F)CC3)n2)=NO1 (stereo not drawn) [Compound 160] | ≥ 70 | ≥ 70
CCCS(C)(=O)=Nc1cccc(Cl)c1C1CC(c2csc(C3CCN(C(=O)Cn4nc(C(F)F)cc4C(F)F)CC3)n2)=NO1 (stereo not drawn) [Compound 130] | ≥ 70 | ≥ 70
COc1cccnc1OCC(=O)N1CCC(c2nc(C3=NOC(c4c(Cl)cccc4/S(C)=N/C#N)C3)cs2)CC1 (stereo not drawn) [Compound 151] | ≥ 70 | ≥ 70
CN=S(C)(=O)c1cccc(Cl)c1[C@H]1CC(c2csc(C3CCN(C(=O)Cn4nc(C(F)(F)F)cc4C)CC3)n2)=NO1 (stereo partly drawn) [Compound 72] | ≥ 70 | ≥ 70
CCCS(C)(=O)=Nc1cccc(Cl)c1C1CC(c2csc(C3CCN(C(=O)Cn4nc(C(F)(F)F)cc4C(F)(F)F)CC3)n2)=NO1 (stereo not drawn) [Compound 129] | ≥ 70 | ≥ 70
CCCS(C)(=O)=Nc1cccc(Cl)c1C1CC(c2csc(C3CCN(C(=O)Cn4nc(C(F)(F)F)cc4C)CC3)n2)=NO1 (stereo not drawn) [Compound 128] | ≥ 70 | ≥ 70
CCS(=O)(CC)=Nc1cccc(F)c1C1CC(c2csc(C3CCN(C(=O)COc4ncccc4OC)CC3)n2)=NO1 (stereo not drawn) [Compound 141] | ≥ 70 | ≥ 70
CC(C)S(=N)(=O)c1cccc(Cl)c1C1CC(c2csc(C3CCN(C(=O)Cn4nc(C(F)F)cc4C(F)F)CC3)n2)=NO1 (stereo not drawn) [Compound 61] | ≥ 70 | ≥ 70
CC(C)S(C)(=O)=Nc1cccc(F)c1C1CC(c2csc(C3CCN(C(=O)Cn4nc(C(F)F)cc4C(F)F)CC3)n2)=NO1 (stereo not drawn) [Compound 121] | ≥ 70 | ≥ 70
COc1cccnc1OCC(=O)N1CCC(c2nc(C3=NOC(c4c(Cl)cccc4N=S4(=O)CCCC4)C3)cs2)CC1 (stereo not drawn) [Compound 110] | ≥ 70 | ≥ 70
COc1cccnc1OCC(=O)N1CCC(c2nc(C3=NOC(c4c(Cl)cccc4/S(C)=N\C#N)C3)cs2)CC1 (stereo not drawn) [Compound 150] | ≥ 70 | ≥ 70
CS1(=O)=Nc2c(cc(Cl)cc2C2CC(c3csc(C4CCN(C(=O)Cn5nc(C(F)F)cc5C(F)F)CC4)n3)=NO2)C1 (stereo not drawn) [Compound 57] | ≥ 70 | ≥ 70
Cc1cc(C(F)(F)F)nn1CC(=O)N1CCC(c2nc(C3=NOC(c4c(F)cccc4N=S(C)(=O)C(C)C)C3)cs2)CC1 (stereo not drawn) [Compound 123] | ≥ 70 | ≥ 70
Cc1cc(C(F)(F)F)nn1CC(=O)N1CCC(c2nc(C3=NOC(c4c(N=S(C)(C)=O)cccc4C(F)(F)F)C3)cs2)CC1 (stereo not drawn) [Compound 85] | ≥ 70 | ≥ 70
O=C(Cn1nc(C(F)(F)F)cc1C(F)(F)F)N1CCC(c2nc(C3=NOC(c4c(Cl)cccc4N=S4(=O)CCCC4)C3)cs2)CC1 (stereo not drawn) [Compound 111] | ≥ 70 | ≥ 70
Cc1cc(C(F)(F)F)nn1CC(=O)N1CCC(c2nc(C3=NO[C@@H](c4cc(Cl)cc5c4N=S(C)(=O)C5)C3)cs2)CC1 (stereo partly drawn) [Compound 50] | ≥ 70 | ≥ 70
CN=S(C)(=O)c1cccc(C(F)(F)F)c1C1CC(c2csc(C3CCN(C(=O)Cn4nc(C(F)F)cc4C(F)F)CC3)n2)=NO1 (stereo not drawn) [Compound 113] | ≥ 70 | ≥ 70
COc1cccnc1OCC(=O)N1CCC(c2nc(C3=NOC(c4c(C#N)cccc4S(C)(=N)=O)C3)cs2)CC1 (stereo not drawn) [Compound 104] | ≥ 70 | ≥ 70
CS(C)(=O)=Nc1cccc(Cl)c1C1CC(c2csc(C3CCN(C(=O)Cn4nc(C(F)(F)F)cc4C(F)(F)F)CC3)n2)=NO1 (stereo not drawn) [Compound 83] | ≥ 70 | ≥ 70

Compound | control compared to the untreated check (Phytophthora infestans [1]) [%] | control compared to the untreated check (Efficacy, % control) (Phytophthora infestans [2]) [%]
CS(=N)(=O)c1cccc(C#N)c1C1CC(c2csc(C3CCN(C(=O)Cn4nc(C(F)(F)F)cc4C(F)(F)F)CC3)n2)=NO1 (stereo not drawn) [Compound 105] | ≥ 70 | ≥ 70
CS(C)(=O)=Nc1cccc(Cl)c1C1CC(c2csc(C3CCN(C(=O)Cn4nc(C(F)F)cc4C(F)F)CC3)n2)=NO1 (stereo not drawn) [Compound 82] | ≥ 70 | ≥ 70
CN=S(C)(=O)c1cccc(C(F)(F)F)c1C1CC(c2csc(C3CCN(C(=O)Cn4nc(C(F)(F)F)cc4C)CC3)n2)=NO1 (stereo not drawn) [Compound 112] | ≥ 70 | ≥ 70
N-((E)-(3-chloro-2-((R)-3-(2-(1-(2-(5-methyl-3-(trifluoromethyl)-1H-pyrazol-1-yl)acetyl)piperidin-4-yl)thiazol-4-yl)-4,5-dihydroisoxazol-5-yl)phenyl)(methyl)-λ^4-sulfaneylidene) cyanamide [Compound 69] | ≥ 70 | ≥ 70
CS1(=O)=Nc2c(cc(Cl)cc2[C@@H]2CC(c3csc(C4CCN(C(=O)Cn5nc(C(F)F)cc5C(F)F)CC4)n3)=NO2)C1 (stereo partly drawn) [Compound 55] | ≥ 70 | ≥ 70
CCS(=O)(CC)=Nc1cccc(Cl)c1C1CC(c2csc(C3CCN(C(=O)COc4nccnc4C(F)(F)F)CC3)n2)=NO1 (stereo not drawn) [Compound 137] | ≥ 70 | ≥ 70
CN=S(C)(=O)c1cccc(C(F)(F)F)c1C1CC(c2csc(C3CCN(C(=O)COc4ncccc4OC)CC3)n2)=NO1 (stereo not drawn) [Compound 117] | ≥ 70 | ≥ 70
O=C(Cn1nc(C(F)F)cc1C(F)F)N1CCC(c2nc(C3=NOC(c4c(Cl)cccc4N=S4(=O)CCCC4)C3)cs2)CC1 (stereo not drawn) [Compound 108] | ≥ 70 | ≥ 70
CC(C)S(C)(=O)=Nc1cccc(F)c1C1CC(c2csc(C3CCN(C(=O)COc4ncccc4C(F)(F)F)CC3)n2)=NO1 (stereo not drawn) [Compound 122] | ≥ 70 | ≥ 70
CCCS(C)(=O)=Nc1cccc(Cl)c1C1CC(c2csc(C3CCN(C(=O)COc4ncccc4C(F)(F)F)CC3)n2)=NO1 (stereo not drawn) [Compound 132] | ≥ 70 | ≥ 70
CCS(=O)(CC)=Nc1cccc(Cl)c1C1CC(c2csc(C3CCN(C(=O)COc4ncccc4OC)CC3)n2)=NO1 (stereo not drawn) [Compound 136] | ≥ 70 | ≥ 70
CCCS(C)(=O)=Nc1cccc(Cl)c1C1CC(c2csc(C3CCN(C(=O)COc4nccnc4C(F)(F)F)CC3)n2)=NO1 (stereo not drawn) [Compound 131] | ≥ 70 | ≥ 70
CCS(=O)(CC)=Nc1cccc(F)c1C1CC(c2csc(C3CCN(C(=O)COc4nccnc4C(F)(F)F)CC3)n2)=NO1 (stereo not drawn) [Compound 143] | ≥ 70 | ≥ 70
CS(=N)(=O)c1cccc(C(F)F)c1C1CC(c2csc(C3CCN(C(=O)Cn4nc(C(F)(F)F)cc4C(F)(F)F)CC3)n2)=NO1 (stereo not drawn) [Compound 102] | ≥ 70 | ≥ 70
CN=S(C)(=O)c1cccc(Cl)c1[C@@H]1CC(c2csc(C3CCN(C(=O)Cn4nc(C(F)(F)F)cc4C)CC3)n2)=NO1 (stereo partly drawn) [Compound 73] | ≥ 70 | ≥ 70
CCCS(C)(=O)=Nc1cccc(F)c1C1CC(c2csc(C3CCN(C(=O)Cn4nc(C(F)(F)F)cc4C)CC3)n2)=NO1 (stereo not drawn) [Compound 125] | ≥ 70 | ≥ 70
COc1cccnc1OCC(=O)N1CCC(c2nc(C3=NOC(c4c(N=S(C)(C)=O)cccc4C(F)(F)F)C3)cs2)CC1 (stereo not drawn) [Compound 100] | ≥ 70 | ≥ 70
Cc1cc(C(F)(F)F)nn1CC(=O)N1CCC(c2nc(C3=NOC(c4c(Cl)cccc4S(C)=NC#N)C3)cs2)CC1 (stereo not drawn) [Compound 66] | ≥ 70 | ≥ 70
Cc1cc(C(F)(F)F)nn1CC(=O)N1CCC(c2nc(C3=NOC(c4c(Cl)cccc4S(=N)(=O)C(C)C)C3)cs2)CC1 (stereo not drawn) [Compound 45] | ≥ 70 | ≥ 70
CN=S(C)(=O)c1cccc(C(F)F)c1C1CC(c2csc(C3CCN(C(=O)Cn4nc(C)cc4C)CC3)n2)=NO1 (stereo not drawn) [Compound 147] | ≥ 70 | ≥ 70
CCN=S(C)(=O)c1cccc(C(F)(F)F)c1C1CC(c2csc(C3CCN(C(=O)Cn4nc(C(F)(F)F)cc4C)CC3)n2)=NO1 (stereo not drawn) [Compound 115] | ≥ 70 | ≥ 70
